Assay results from PubChem BioAssay AID504444 (National Center for Advancing Translational Sciences (NCATS), 2011).
Screen size: about 360,000 compounds; about 7,500 (2.1%) were called active. Inconclusive means that the source gave no clear call. Such entries were picked first, then a sample of the others. Calls come from the whole dose curve; as a rule, active = well fitted inhibition curve with a large enough effect; inconclusive = small, poorly fitted or top-dose-only effect, or effect the other way; inactive = flat fitted curve, though single readings scatter. Potencies beside an inconclusive call are fits to weak or partial responses and may not hold up.

test: Nrf2 qHTS screen for inhibitors; conditions: A549 ARE-Fluc reporter, luciferase luminescence, 18-24 h; activity change, negative = inhibition: at 46 µM (top of the series); note: nearly all actives have a fitted effect of over 60% in size
Procedure, shortened: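 Nrf2 function is reported as luminescence of an ARE-controlled luciferase in A549 cells. Compounds were tested at several concentrations, and a CellTiter-Fluor read on the same wells flagged cytotoxicity.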
% is set by controls: 0 for no effect and ±100 for the full control effect; potency is the fitted concentration of half-maximal effect.

SMILES	Potency	activity change, negative = inhibition
O=C(COc1ccc2c(-c3ccccc3)cc(=O)oc2c1)NCC1CCC(C(=O)O)CC1 (configuration not stated)	inconclusive: 32.6 µM [falling, partial curve, poor fit]	–
CCOc1ccccc1NC(=S)N(CCOC)C1CCN(C(C)=O)CC1	inconclusive: 0.231 µM [activator, full curve, poor fit]	–
CN(CCCC(=O)N1CCN(c2ncccn2)CC1)S(=O)(=O)c1ccc(F)cc1	inconclusive: 0.0041 µM [falling, full curve, poor fit]	–
COc1ccccc1CNC(=O)c1cc(S(=O)(=O)N2CCCCC2)c[nH]1	inconclusive: 9.2 µM [falling, partial curve]	–
O=C(Cc1c(Sc2ccccc2)c2ccccc2n1Cc1ccccc1)NCCO	inconclusive: 25.9 µM [falling, single point]	–
Clc1ccc(CN2C3=NCCCN3c3ccccc32)cc1Cl	inconclusive: 32.6 µM [activator, single point]	–
CCn1ccnc1CN(C)Cc1cn(-c2ccc(C)cc2)nc1-c1cccc(C)c1	inconclusive: 29.1 µM [falling, single point]	–
N#Cc1ccsc1NC(=O)CSc1ncnc2ccccc12	inconclusive: 29.1 µM [falling, single point]	–
CCCn1nc(NC(=O)c2cccs2)c2cc3ccc(C)cc3nc21	inconclusive: 29.1 µM [falling, single point]	–
CCCCOC(=O)/C=C\C(=O)NC(N)=O	–	inactive: -11.7%
CCOC(=O)N1CCN(C(=O)COc2cccc3c2CCN(Cc2ccc(F)cc2)C3=O)CC1	inconclusive: 20.6 µM [falling, single point]	–
O=C(Cn1ncc2c3ccccc3n(Cc3ccccc3F)c2c1=O)N1CCN(c2ccccn2)CC1	inconclusive: 20.6 µM [falling, single point]	–
CCOC(=O)N1CCC2(CC1)OC(=O)C(C)=C2C(=O)NCc1cccc(F)c1	inconclusive: 32.6 µM [activator, single point]	–
COc1cccc(OCCSc2nc(N)cc(N)n2)c1	inconclusive: 25.9 µM [falling, partial curve, poor fit]	–
Cc1ccc(C2C=C(c3ccccc3OC(F)F)Nc3ncnn32)cc1 (configuration not stated)	–	inactive: -19.2%
CCCCCc1nc2c(c3c1CCCC3)CCCC2	inconclusive: 32.6 µM [activator, single point]	–
COc1ccc2nc(/N=C/c3c(C)[nH]n(-c4ccc(C)cc4)c3=O)sc2c1	inconclusive: 8.2 µM [activator, partial curve]	–
COc1ccc(Nc2oc(COc3ccc(C)cc3)nc2C#N)cc1	inconclusive: 29.1 µM [falling, single point]	–
O=C1CC(c2ccccc2)=NN1c1nc(-c2ccccc2)cs1	inconclusive: 2.31 µM [activator, partial curve]	–
CCN(Cc1nc(-c2cccc(C)c2)no1)C(=O)c1ccc2c(c1)OCO2	–	inactive: -0.823%
O=C(Nc1ncc(Cc2ccccc2)s1)C1COc2ccccc2O1 (configuration not stated)	inconclusive: 1.84 µM [activator, partial curve, poor fit]	–
COc1ccc(CN2CCN(C(=O)CCC(=O)Nc3nnc(C(C)C)s3)CC2)cc1F	inconclusive: 14.6 µM [falling, partial curve, poor fit]	–
COc1ccc(-c2nc(C#N)c(NCC3CCCO3)o2)cc1 (configuration not stated)	inconclusive: 29.1 µM [activator, single point]	–

SMILES	Potency	activity change, negative = inhibition
Cc1ccc(NC(=O)CN(C)C(=O)CNC(=O)c2sc3ccccc3c2Cl)cc1	inconclusive: 23.1 µM [activator, partial curve]	–
COc1ccc(-c2[nH]c(-c3ccc(F)cc3)nc2SCC(=O)NC2CCCC2)cc1	inconclusive: 11.6 µM [falling, partial curve, poor fit]	–
COC(=O)CSC1=C(C#N)C(c2ccccc2)CC(=O)N1 (configuration not stated)	inconclusive: 29.1 µM [falling, single point]	–
Cc1nn(C)c(C)c1CN(Cc1nc(-c2ccc(F)cc2F)oc1C)C1CC1	inconclusive: 25.9 µM [falling, partial curve, poor fit]	–
Cn1c(=N)n(CC(=O)c2ccccc2)c2ccccc21	inconclusive: 29.1 µM [activator, single point]	–
Cn1nc(C(=O)Nc2nc3ccccc3[nH]2)ccc1=O	inconclusive: 29.1 µM [activator, single point]	–
Cc1cc(NC(=O)C2CCN(S(=O)(=O)c3cccc4nsnc34)CC2)ccc1Br	–	inactive: -13.3%
Cc1cc(NC(=O)c2cc(CC(C)C)on2)no1	inconclusive: 20.6 µM [activator, single point]	–
CCOc1ccccc1NC(=O)Nc1ccc(Cl)cc1	inconclusive: 1.3 µM [falling, partial curve]	–
Cc1ccc(NS(=O)(=O)c2cc3c(cc2F)NC(=O)CC3)cc1C	–	inactive: -24.3%
COc1ccc(CCC(=O)NCCS(=O)(=O)N2CCN(c3ccccc3OC)CC2)cc1	inconclusive: 20.6 µM [falling, partial curve, poor fit]	–
O=C(COc1cccc(Cl)c1)N/N=C\c1cc2ccccc2nc1Cl	–	inactive: 5%
C#CCOc1ccc(C2CC(=O)Nc3c2c(C)nn3-c2nc(C)cc(C)n2)cc1 (configuration not stated)	–	inactive: 6.44%
O=C(NNC(=O)C1CC2CCC1C2)c1sc2ccccc2c1Cl (configuration not stated)	inconclusive: 32.6 µM [activator, single point]	–
COCC(=O)N(Cc1cc2cc(OC)ccc2[nH]c1=O)c1ccccc1OC	inconclusive: 5.8 µM [activator, full curve, poor fit]	–
CCN(C(=O)CSc1nc2scc(-c3ccccc3)c2c(=O)n1N)C1CCS(=O)(=O)C1 (configuration not stated)	–	inactive: 11.9%
CCOc1ccc(N(C)S(=O)(=O)c2ccc(C)c(C(=O)NCc3ccccc3OC)c2)cc1	active: 23.1 µM	–
CCOC(=O)c1ccccc1NC(=O)COc1ccccc1-c1nnc(-c2ccccc2)o1	inconclusive: 6.51 µM [activator, single point]	–
Cc1cc(C)cc(OCC(O)CN2CCN(Cc3ccc4c(c3)OCO4)CC2)c1 (configuration not stated)	inconclusive: 29.1 µM [falling, single point]	–
COc1ccc2c(c1)CC/C(=C/c1ccncc1)C2=O	–	inactive: -29.8%
CSc1nn(Cc2cccc(C)c2)c(N)c1S(=O)(=O)c1ccccc1	inconclusive: 29.1 µM [falling, single point]	–
Cc1ccccc1NC(=S)N/N=C/c1ccc(O)cc1O	–	inactive: -19.3%
CC(C)COC(=O)c1ccccc1OC(=O)c1ccncc1	inconclusive: 32.6 µM [activator, partial curve, poor fit]	–

SMILES	Potency	activity change, negative = inhibition
CCc1ccc(C2=NN(C(C)=O)C(c3ccco3)C2)cc1 (configuration not stated)	inconclusive: 9.2 µM [activator, partial curve]	–
O=C(OCC(=O)N1CCC(c2ccccc2)=N1)c1ccc([N+](=O)[O-])s1	active: 23.1 µM	–
CCOC(=O)C(NC(=O)c1cccc(Cl)c1)(OCc1ccc(F)cc1)C(F)(F)F (configuration not stated)	inconclusive: 29.1 µM [falling, single point]	–
CC1(C)C2CC=C(/C=N/NC(=S)NCCc3ccccc3)C1C2 (configuration not stated)	–	inactive: -17.6%
CC(=O)Nc1ccc(NC(=O)C2CCC(N3C(=O)C4C5C=CC(C6CC56)C4C3=O)CC2)cc1 (configuration not stated)	active: 25.9 µM	–
Cc1c(C(=O)Nc2cccc(-c3nc4ccccc4s3)c2)oc2ccccc12	inconclusive: 29.1 µM [activator, single point]	–
CCOc1ccc2nc(N3CCCC(C(=O)Nc4cc(Cl)c(OC)cc4OC)C3)sc2c1 (configuration not stated)	inconclusive: 2.59 µM [activator, single point]	–
O=C(CSC(=S)N1CCCC1)c1cc(Br)cc(Br)c1O	–	inactive: -13%
COC(=O)COc1ccc2occ(C(C)=O)c2c1	inconclusive: 23.1 µM [activator, partial curve, poor fit]	–
CCOC(=O)c1cc2c3ccccc3n(CC)c2nc1N	–	inactive: -2.61%
O=C(Nc1nc2ccccc2[nH]1)c1ccc(Cl)c(S(=O)(=O)N2CCCC2)c1	inconclusive: 29.1 µM [falling, single point]	–
COc1ccccc1Oc1ccc(NC(=O)c2ccc(Cl)cc2)cc1	inconclusive: 11.6 µM [falling, partial curve]	–
Cc1ccc(S(=O)(=O)N2CCCN(C(=O)c3ccc(-n4cccn4)cc3)CC2)cc1	inconclusive: 32.6 µM [falling, single point]	–
Cc1ccccc1SC1CCN(Cc2nc(C3CC3)no2)CC1	inconclusive: 16.4 µM [activator, partial curve]	–
COc1ccc(C)cc1NC(=O)CSc1nc(SC)ns1	inconclusive: 0.366 µM [activator, full curve, poor fit]	–
COc1cc2c(=O)n(CCC(=O)NCC3CCCO3)c(=O)n(CC(=O)Nc3ccc(C)cc3C)c2cc1OC (configuration not stated)	inconclusive: 29.1 µM [activator, single point]	–
CCc1c(C(=O)NNC(=S)NC2CCCCC2)csc1C	inconclusive: 2.06 µM [activator, single point]	–
COc1cc(NC(=O)C(CC(C)C)NS(=O)(=O)c2ccc3c(c2)CCN3C(C)=O)cc(OC)c1 (configuration not stated)	inconclusive: 11.6 µM [activator, partial curve, poor fit]	–
O=C(N/N=C1\CCc2ccccc21)c1ccccc1O	inconclusive: 25.9 µM [activator, single point]	–
O=C(CCCc1ccccn1)c1ccccc1	inconclusive: 6.51 µM [activator, partial curve]	–
CCc1ccc(CNCc2c(C(=O)O)n(Cc3ccc(C)cc3)c3cc(C)ccc23)cc1	inconclusive: 23.1 µM [falling, single point]	–

Record cards, from the list above.
CCOC(=O)c1cc2c3ccccc3n(CC)c2nc1N as listed: activity change, negative = inhibition: inactive: -2.61%
COc1ccccc1Oc1ccc(NC(=O)c2ccc(Cl)cc2)cc1 as listed: Potency: inconclusive: 11.6 µM [falling, partial curve]
O=C(Nc1nc2ccccc2[nH]1)c1ccc(Cl)c(S(=O)(=O)N2CCCC2)c1 as listed: Potency: inconclusive: 29.1 µM [falling, single point]
O=C(OCC(=O)N1CCC(c2ccccc2)=N1)c1ccc([N+](=O)[O-])s1 as listed: Potency: active: 23.1 µM
